Measured values: patent publication US10543250B2, “Antimicrobial fusion peptides” (Los Angeles Biomedical Research Institute at Harbor-UCLA …, priority 2015, dated 2020)
At least one peptide structure holds a part that was inferred or is arguable (an end, a ring closure or a residue). No end group written: not given here.

System: MDRAB clinical isolate HUMC-1
Assay: Neutropenic murine model of MDRAB pneumonia
Type: in vivo, Acinetobacter baumannii
Conditions: neutropenic mice, aerosolized MDRAB HUMC-1; treatment for 3d; survival monitored to day 21; peptide 12.5 mg/kg IV qd, imipenem 15 mg/kg IP bid
Method: Neutropenic mice (cortisone acetate [250 mg/kg; subQ]+cyclophosphamide [200 mg/kg; IP] on study days-2, +3, and +8) were infected on day 0 (aerosolized; MDRAB clinical isolate HUMC-1; 5×10^8 CFU; lung Cx-positive). Treatment initiated 4 hr or 24 hr post-infection and continued for 3d. Groups:control (PBS); imipenem (15 mg/kg; IP; bid); γ-RP-1 (12.5 mg/kg; IV; qd); γ-RP-1 (12.5 mg/kg; IV; qd). Survival was then monitored to day 21. At end point or 21d, lungs and spleens were cultured. Outcomes were compared by non-parametric analysis. All studies adhered to institutional and AAALAC animal care policies.

ALYKKFKKKLLKSLKRLG [RP-1]
survival: 28%
